Library screen at single concentrations

Protein sequences, listed by entry. Tags and fused reporters are not part of them. Residues count along the entry.
UniProt I6X8D2, whole entry: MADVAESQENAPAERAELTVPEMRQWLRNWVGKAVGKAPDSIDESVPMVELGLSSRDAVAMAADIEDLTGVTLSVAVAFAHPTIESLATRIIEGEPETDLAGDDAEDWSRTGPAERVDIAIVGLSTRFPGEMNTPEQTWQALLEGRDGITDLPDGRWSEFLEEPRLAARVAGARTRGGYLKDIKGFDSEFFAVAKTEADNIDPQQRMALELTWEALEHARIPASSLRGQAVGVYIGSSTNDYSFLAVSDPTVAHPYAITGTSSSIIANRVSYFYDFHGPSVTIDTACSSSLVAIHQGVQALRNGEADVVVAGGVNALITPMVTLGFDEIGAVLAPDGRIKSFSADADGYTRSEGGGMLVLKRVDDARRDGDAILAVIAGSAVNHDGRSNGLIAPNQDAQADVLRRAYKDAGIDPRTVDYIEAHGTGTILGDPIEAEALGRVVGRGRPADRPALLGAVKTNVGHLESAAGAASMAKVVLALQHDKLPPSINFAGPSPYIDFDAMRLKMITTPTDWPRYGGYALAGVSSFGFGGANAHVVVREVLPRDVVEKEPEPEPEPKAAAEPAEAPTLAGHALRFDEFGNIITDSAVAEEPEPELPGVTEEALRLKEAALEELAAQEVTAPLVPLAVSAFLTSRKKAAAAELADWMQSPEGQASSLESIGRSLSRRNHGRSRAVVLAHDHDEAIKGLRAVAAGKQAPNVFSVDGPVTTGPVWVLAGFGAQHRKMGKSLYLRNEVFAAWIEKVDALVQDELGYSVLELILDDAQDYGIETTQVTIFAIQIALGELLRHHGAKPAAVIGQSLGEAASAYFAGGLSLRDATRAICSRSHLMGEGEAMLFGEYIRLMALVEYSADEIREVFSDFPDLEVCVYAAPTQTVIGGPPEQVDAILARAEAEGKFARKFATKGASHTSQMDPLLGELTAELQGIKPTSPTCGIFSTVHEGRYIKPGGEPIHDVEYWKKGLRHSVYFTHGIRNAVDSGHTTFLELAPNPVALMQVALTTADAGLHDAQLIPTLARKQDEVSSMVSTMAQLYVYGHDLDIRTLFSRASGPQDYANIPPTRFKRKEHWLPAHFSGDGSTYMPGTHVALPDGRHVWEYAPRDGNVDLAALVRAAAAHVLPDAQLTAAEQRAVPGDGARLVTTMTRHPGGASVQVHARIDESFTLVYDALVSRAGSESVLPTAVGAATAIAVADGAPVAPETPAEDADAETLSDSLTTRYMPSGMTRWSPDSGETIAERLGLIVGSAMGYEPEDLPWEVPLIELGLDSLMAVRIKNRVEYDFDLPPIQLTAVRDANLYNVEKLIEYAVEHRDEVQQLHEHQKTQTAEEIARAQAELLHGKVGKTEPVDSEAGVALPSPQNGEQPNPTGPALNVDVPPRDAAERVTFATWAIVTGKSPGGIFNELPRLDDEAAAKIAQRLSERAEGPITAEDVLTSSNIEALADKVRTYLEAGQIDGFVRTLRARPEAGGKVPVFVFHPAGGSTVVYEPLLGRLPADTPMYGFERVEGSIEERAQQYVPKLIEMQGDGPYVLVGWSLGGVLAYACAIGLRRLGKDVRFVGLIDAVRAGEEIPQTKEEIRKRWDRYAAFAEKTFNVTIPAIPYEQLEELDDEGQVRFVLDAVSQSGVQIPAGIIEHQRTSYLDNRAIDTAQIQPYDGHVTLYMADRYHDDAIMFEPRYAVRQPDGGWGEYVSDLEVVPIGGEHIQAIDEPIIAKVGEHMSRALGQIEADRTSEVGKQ
UniProt P9WNZ1, whole entry: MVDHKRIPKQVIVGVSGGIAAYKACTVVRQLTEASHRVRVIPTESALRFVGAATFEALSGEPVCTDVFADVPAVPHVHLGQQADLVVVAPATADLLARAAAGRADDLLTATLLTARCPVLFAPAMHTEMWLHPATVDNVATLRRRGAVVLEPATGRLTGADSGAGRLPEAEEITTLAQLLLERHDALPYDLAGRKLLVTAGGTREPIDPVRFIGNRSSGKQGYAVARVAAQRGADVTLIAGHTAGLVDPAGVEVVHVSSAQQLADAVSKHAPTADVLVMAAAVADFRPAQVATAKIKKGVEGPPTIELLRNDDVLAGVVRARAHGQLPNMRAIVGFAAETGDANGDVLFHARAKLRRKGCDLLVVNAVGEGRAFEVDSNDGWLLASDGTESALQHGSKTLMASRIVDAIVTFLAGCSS
UniProt P9WFT3, whole entry: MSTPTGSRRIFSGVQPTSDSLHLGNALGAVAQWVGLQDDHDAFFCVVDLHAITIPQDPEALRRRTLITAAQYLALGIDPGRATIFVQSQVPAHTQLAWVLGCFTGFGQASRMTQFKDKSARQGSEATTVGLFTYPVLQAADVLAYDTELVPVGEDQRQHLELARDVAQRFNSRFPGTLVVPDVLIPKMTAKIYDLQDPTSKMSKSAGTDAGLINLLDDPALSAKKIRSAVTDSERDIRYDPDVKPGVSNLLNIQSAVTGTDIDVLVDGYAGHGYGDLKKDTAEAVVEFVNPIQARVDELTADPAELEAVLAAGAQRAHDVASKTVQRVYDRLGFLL
UniProt A4I591, 1-473: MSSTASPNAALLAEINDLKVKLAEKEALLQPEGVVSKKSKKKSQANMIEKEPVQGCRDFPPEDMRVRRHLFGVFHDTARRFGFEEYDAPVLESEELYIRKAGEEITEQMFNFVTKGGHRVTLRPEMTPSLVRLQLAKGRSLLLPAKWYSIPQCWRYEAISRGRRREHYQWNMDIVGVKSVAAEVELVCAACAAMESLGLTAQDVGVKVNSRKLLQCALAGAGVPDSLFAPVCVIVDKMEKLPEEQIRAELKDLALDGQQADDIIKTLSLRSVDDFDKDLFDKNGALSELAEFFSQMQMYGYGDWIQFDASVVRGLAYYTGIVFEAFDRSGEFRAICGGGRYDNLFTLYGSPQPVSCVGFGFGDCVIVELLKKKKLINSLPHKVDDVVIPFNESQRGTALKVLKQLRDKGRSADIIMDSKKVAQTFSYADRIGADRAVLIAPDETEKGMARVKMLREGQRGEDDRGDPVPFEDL
UniProt Q4DA54, 1-478: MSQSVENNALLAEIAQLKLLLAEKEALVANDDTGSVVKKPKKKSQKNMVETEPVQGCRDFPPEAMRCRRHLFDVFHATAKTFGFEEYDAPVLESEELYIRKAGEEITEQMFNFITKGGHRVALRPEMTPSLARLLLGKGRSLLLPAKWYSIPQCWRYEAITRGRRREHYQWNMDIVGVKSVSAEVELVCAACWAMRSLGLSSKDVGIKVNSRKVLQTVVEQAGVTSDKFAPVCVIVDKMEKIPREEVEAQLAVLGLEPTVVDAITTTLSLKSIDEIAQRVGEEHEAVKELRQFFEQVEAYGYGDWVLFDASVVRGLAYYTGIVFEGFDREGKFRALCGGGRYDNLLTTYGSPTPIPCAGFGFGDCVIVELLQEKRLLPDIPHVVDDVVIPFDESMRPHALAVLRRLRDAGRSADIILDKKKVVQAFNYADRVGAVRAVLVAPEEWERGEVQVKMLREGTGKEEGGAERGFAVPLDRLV

A: 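Enzyme assay of the thioesterase domain of polyketide synthase 13; the read-out is not stated. Target: Polyketide synthase Pks13, Mycobacterium tuberculosis (UniProt I6X8D2). Compounds at 30 µM. Higher reads as stronger inhibition (inferred from which compounds were picked for retests). Of about 67,000 compounds tested this way, about 300 (0.46%) reached 50% or more in at least one test.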
B: 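Assay of Toxoplasma gondii numbers, read through their beta-galactosidase reporter with a colour substrate. Tested at 10 µM. Higher reads as fewer parasites (inferred from which compounds were picked for retests). Size under these conditions: about 67,000 compounds, about 260 of them at 50% or above in at least one test.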
C: 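Coenzyme A biosynthesis protein CoaBC, Mycobacterium tuberculosis (UniProt P9WNZ1). Enzyme assay of CoaBC with a phosphate dye (Biomol Green) read at 650 nm. Compounds at 30 µM. Direction is inferred from only a few compounds that gave an IC50; most scored high, so higher reads as stronger inhibition. Most strong results did not repeat in a second test. Size under these conditions: about 67,000 compounds, about 40 of them at 50% or above in at least one test.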
D: 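Tryptophan-tRNA ligase, Mycobacterium tuberculosis (UniProt P9WFT3). Enzyme assay of tryptophanyl-tRNA synthetase; the read-out is not stated. Compounds at 10 µM. Direction is not recorded; retested compounds ran higher, which suggests that high means inhibition. Of about 65,000 compounds tested this way, about 64 (0.098%) reached 50% or more in at least one test.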
E: 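Enzyme assay of histidyl-tRNA synthetase; the read-out is not stated. Target: Histidine-tRNA ligase, Leishmania infantum (UniProt A4I591). Concentration: 30 µM. Direction is inferred from retests: higher values go with stronger inhibition. The assay is labelled LdHisRS but filed under L. infantum. Size under these conditions: about 69,000 compounds, about 410 of them at 50% or above in at least one test.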
F: 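Enzyme assay of histidyl-tRNA synthetase; the read-out is not stated. Target: Histidine-tRNA ligase, Trypanosoma cruzi CL Brener (UniProt Q4DA54). Concentration: 30 µM. Higher reads as stronger inhibition (inferred: compounds with an IC50 in retests scored well above the rest). Size under these conditions: about 69,000 compounds, about 31 of them at 50% or above in at least one test.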

Values are the deposited “Percent Effect”, in %.
The controls that fix the scale are not given in the record; negative values are as filed.
Compounds were drawn at random from those tested, without regard to their results.
A dash means the value is not listed here; it may have been measured.

structure	A	B	C	D	E	F
Cn1cc(C(=O)NCc2cn3c(n2)CN(CC2CCCC2)CC3)cn1	7.984%	-	3.201%	5.013%	19.75%	6.748%
CN(C)C(CNC(=O)NCc1cc[nH]n1)c1ccco1 (stereo unspecified)	-	-0.05797%	6.438%	0.08794%	8.197%	2.326%
Cc1ccc2c(n1)N(Cc1cccnc1)CCN(C(=O)C1CCC1)C2.O=C(O)C(F)(F)F.O=C(O)C(F)(F)F	-	-16.46%	-	-	-	-
Cn1ccnc1CCNS(=O)(=O)c1cccnc1	-23.7%	3.753%	-7.46%	-4.844%	21.21%	2.174%
Cc1csc(CN2CC[C@H]3O[C@H](C(=O)Nc4cccnc4)CC[C@H]32)n1	-9.41%	-	5.977%	7.008%	22.34%	15.08%
CC(C)C(Sc1nnnn1-c1ccccc1)C(=O)NCc1cccnc1 (stereo unspecified)	-3.886%	3.07%	-2.651%	-1.839%	10.96%	4.58%
CC(C)(C)OC(=O)NCC(=O)NCc1ccc(Cl)s1	-19.07%	-1.848%	7.727%	2.23%	21.92%	5.946%
Cc1cc(F)ccc1-n1cc(O)c(C(=O)NCC2(O)CCC2)n1	3.029%	5.388%	0.2421%	1.581%	10.87%	3%
CC(CCc1ccccc1)NC(=O)CN1CCOCC1 (stereo unspecified)	-27.91%	-4.485%	2.41%	-0.09099%	1.493%	6.383%
Fc1ccc(CN2CCO[C@H]3[C@H](OCC4CCCC4)CC[C@@H]32)cc1	2.146%	-	3.083%	-0.4433%	6.944%	1.905%
O=C(CCn1c(C(F)F)cc2cccnc21)NC1CC1	2.443%	-4.807%	-6.551%	-2.824%	8.966%	9.886%
COCC1COCCC12CCN(C(=O)CC1Cc3ccccc3C1)CC2 (stereo unspecified)	-5.999%	14.19%	3.008%	-0.1383%	12.82%	1.22%
Cc1nc(C)n(Cc2cccc(NC(=O)NC(C)(CO)C3CC3)c2)n1 (stereo unspecified)	-5.817%	-3.001%	0.8065%	-5.932%	5.263%	4.202%
CCCS(=O)(=O)NC(=O)c1ccc(-n2nc(C)cc2C)cc1	-23.94%	-0.8323%	3.871%	-0.2742%	14.47%	5.419%
Cc1cc(C)c2cc(CNCc3ccccc3)c3nn(C)c(=O)n3c2c1	-72.8%	25.69%	1.667%	3.261%	16.67%	0.5405%
Cc1ccc2c(n1)N(CCN(C)C)CCN(C(=O)c1cccs1)C2	-4.682%	-	2.843%	-3.867%	11%	9.184%
CN(C)C(=O)NC1COC2(CCN(Cc3ccco3)CC2)C1 (stereo unspecified)	-	-15.54%	2.538%	-7.325%	5.882%	2.956%
COCCN(CCOC)Cc1c(C)nc2ccccc2c1O	22.15%	9.262%	-6.503%	-	12.37%	2.312%
CCC[C@H]1CN(Cc2ccc(N(C)C)nc2)C[C@@H]1NC(=O)CSC	-17.6%	-5.33%	2.991%	-7.066%	5.128%	2.703%
Cc1nccn1CCC1CCCCN1Cc1ccncc1 (stereo unspecified)	-3.389%	-2.093%	-0.8929%	-1.243%	8.738%	-0.4149%
CC(C)(C)C(O)CCNC(=O)c1ccc(F)cc1Cl (stereo unspecified)	-34.3%	18.15%	12.47%	-2.66%	10.43%	3.093%
O=C(c1cc(Cl)c[nH]1)N1CCN(CCc2ccccn2)CC1	-5.757%	-25.46%	1.266%	2.931%	21.05%	6.098%
Cc1ccc(N2CCC(NC(C)c3cccs3)CC2)nc1 (stereo unspecified)	-31.54%	0.4231%	4.968%	2.183%	0%	-1.02%
Cc1nn(CCN2CCSCC2)cc1CNCC1CC1	1.192%	18.42%	-1.077%	2.685%	8.197%	2.146%
CCCc1noc(CN(C)Cc2ccc3c(c2)OCO3)n1	-11.03%	-5.294%	-0.2415%	-6%	15.15%	8.387%
Cc1c(C)n2c(SCC(=O)N3CCCCCC3)nnc2[nH]c1=O	-12.53%	1.645%	3.479%	0.4167%	15.05%	9.845%
CN(C)C(=O)N1CCN(C(=O)Nc2nc(-c3ccccc3)ns2)CC1	-	6.274%	5.607%	-3.653%	19.74%	2.174%
O=C(c1cncs1)N1CCCC1c1ccn[nH]1 (stereo unspecified)	9.357%	14.35%	2.349%	-6.275%	8.966%	5.323%

For reference, 3 entries once more:

| structure | A | B | C | D | E | F |
|---|---|---|---|---|---|---|
| `Cc1nccn1CCC1CCCCN1Cc1ccncc1` (stereo unspecified) | -3.389% | -2.093% | -0.8929% | -1.243% | 8.738% | -0.4149% |
| `Cc1cc(C)c2cc(CNCc3ccccc3)c3nn(C)c(=O)n3c2c1` | -72.8% | 25.69% | 1.667% | 3.261% | 16.67% | 0.5405% |
| `Cc1cc(F)ccc1-n1cc(O)c(C(=O)NCC2(O)CCC2)n1` | 3.029% | 5.388% | 0.2421% | 1.581% | 10.87% | 3% |

Data taken from ChEMBL document CHEMBL3988442, “University of Dundee, Small-Polar-MMV Screening Library” (2021).